In this test the target is CFAP61, endogenous in mouse testis (mouse (endogenous in testis)) (UniProt Q8CEL2). Kind of test: affinity purification with mass spectrometry.

By UniProt entry, the sequences of proteins in these tests, tags left out.
UniProt Q8CEL2: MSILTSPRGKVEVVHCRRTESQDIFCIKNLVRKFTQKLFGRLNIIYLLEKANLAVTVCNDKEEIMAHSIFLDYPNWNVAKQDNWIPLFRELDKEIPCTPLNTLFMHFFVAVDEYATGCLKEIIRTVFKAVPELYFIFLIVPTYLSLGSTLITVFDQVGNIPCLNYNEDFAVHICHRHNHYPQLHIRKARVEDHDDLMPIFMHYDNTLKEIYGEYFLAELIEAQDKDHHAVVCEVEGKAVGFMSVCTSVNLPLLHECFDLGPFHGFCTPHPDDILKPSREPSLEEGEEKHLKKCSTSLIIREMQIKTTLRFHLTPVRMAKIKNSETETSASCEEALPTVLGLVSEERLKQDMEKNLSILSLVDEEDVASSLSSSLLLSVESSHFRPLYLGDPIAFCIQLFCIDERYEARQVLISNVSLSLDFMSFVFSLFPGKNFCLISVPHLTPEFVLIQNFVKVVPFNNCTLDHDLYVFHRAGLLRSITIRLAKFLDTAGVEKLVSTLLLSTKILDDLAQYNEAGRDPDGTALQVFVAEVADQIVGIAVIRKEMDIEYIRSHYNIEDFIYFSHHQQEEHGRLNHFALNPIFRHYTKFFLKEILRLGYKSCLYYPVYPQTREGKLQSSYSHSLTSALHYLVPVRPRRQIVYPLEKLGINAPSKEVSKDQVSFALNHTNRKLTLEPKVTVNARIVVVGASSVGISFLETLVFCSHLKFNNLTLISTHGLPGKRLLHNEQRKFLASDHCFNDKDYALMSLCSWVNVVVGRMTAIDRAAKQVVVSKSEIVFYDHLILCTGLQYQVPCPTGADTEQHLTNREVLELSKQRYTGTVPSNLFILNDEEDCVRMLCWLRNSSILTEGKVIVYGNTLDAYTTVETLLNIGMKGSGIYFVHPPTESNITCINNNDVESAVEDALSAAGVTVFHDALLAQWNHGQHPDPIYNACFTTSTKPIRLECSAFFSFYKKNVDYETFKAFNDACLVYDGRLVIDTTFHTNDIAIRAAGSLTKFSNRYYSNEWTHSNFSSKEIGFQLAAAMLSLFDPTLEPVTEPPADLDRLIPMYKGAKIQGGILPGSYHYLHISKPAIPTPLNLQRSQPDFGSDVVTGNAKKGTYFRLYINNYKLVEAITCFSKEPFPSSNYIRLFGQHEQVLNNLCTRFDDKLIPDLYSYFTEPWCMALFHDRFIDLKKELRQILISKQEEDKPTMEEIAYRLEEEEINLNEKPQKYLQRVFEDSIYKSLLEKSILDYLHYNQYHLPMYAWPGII

Experimental findings from publication doi:10.1101/2021.03.04.433881 are described below.

These are yes or no findings as the source states them, for the method shown. Binding seen in cells or lysates may run through a third protein. A yes stands for co-enrichment or nearness to the bait. Other partners may have been found.

B1: RSPH9, endogenous in mouse testis (protein, UniProt Q9D9V4 1-276)
chain: MDADSLLLSLELASGSGQGLSPDRRASLLTSLMLVKRDYRFARVLFWGRILGLVADYYIAQGLSEDQLAPRKTLYSLNCTEWSLLPPATEEMAMQISVVSGRFMGDPSHEYEHTELQKVNEGEKVFDEEVVVQIKEETRLVSIIDQIDKAVAIIPRGALFKTPFGVTHVNRTFEGLPLSEVRKLSSYFHFREAIDLKNKTLLEKSDLEPSLDFLDSLEYDIPRGSWSIQMERGNALVVLRSLLWPGLTFYHAPRTKNYGYIYVGTGEKNMDLPFML
On to B1, for which the binding result was “binds”.
